This note sets out measurements from patent publication US20180243437A1.

Protein sequences, listed by entry. Tags and fused reporters are not part of them. Lines headed by an entry give the natural chain unless they say otherwise; changes in a name come on top.
UniProt P35968: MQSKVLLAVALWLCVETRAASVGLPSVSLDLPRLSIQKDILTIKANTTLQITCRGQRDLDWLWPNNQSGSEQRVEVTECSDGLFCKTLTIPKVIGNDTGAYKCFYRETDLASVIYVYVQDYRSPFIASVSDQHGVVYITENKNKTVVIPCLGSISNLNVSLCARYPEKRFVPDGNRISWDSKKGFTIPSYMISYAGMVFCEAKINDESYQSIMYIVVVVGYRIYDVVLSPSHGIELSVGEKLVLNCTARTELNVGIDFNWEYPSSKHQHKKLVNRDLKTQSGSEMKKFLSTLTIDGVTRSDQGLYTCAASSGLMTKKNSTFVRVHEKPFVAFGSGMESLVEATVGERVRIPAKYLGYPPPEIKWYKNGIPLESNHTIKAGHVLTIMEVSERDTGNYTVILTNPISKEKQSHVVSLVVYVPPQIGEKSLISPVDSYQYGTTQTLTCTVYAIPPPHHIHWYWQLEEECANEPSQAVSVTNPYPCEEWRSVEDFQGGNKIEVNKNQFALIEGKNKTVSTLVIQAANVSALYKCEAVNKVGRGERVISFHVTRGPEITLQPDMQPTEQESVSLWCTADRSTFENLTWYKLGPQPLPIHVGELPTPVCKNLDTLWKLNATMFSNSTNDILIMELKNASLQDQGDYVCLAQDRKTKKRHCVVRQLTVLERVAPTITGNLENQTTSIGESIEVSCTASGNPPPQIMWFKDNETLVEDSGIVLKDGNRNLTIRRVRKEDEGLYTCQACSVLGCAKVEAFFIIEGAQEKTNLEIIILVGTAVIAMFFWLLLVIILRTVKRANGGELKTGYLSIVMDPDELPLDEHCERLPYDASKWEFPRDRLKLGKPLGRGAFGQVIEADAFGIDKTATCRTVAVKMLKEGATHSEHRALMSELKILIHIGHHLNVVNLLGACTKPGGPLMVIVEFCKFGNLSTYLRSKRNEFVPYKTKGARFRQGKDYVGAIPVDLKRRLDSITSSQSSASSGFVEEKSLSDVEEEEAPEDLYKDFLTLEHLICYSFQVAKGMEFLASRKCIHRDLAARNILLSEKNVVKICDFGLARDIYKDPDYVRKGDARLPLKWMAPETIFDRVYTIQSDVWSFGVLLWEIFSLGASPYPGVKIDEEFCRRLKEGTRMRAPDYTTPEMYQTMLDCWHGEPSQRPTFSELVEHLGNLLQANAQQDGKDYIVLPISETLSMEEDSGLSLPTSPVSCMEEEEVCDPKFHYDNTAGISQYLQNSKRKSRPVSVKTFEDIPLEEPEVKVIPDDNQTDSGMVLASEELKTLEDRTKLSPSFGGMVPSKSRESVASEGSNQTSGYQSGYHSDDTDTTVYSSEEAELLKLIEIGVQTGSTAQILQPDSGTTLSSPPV

These are yes or no findings as the source states them, for the method shown. Some results given as binding are weak or reduced against the parent protein; the word gives no strength.

In this assay the target is human VEGFR2 (KDR) expressed on 293/KDR cells (human) (UniProt P35968). Briefly: flow cytometry on 293/KDR cells, competition of unlabelled AB1 against 1 µg/mL Biotin-AB1 [panel Unlabelled AB1]. For orientation: Flow cytometry measures light scatter and fluorescence of single cells or particles in a stream.

B1: free AB1 antibody (VHH)
VHH: QVQLVESGGGLVQAGGSLRLSCAASGRAFSSYAMGWFRQAPGKERELVAAISWSDDSTYYANSVKGRFTISRDNAKSAVYLQMNSLKPEDTAVYYCAAHKSLQRPDEYTYWGQGTQVTVSS
For B1, the binding entry is “binds”.
